Measurements taken from the supplement of paper PMC10973195.
± gives the standard deviation of the averaged measurements. The list shows a part of the results. Values are raw readings; no control value is given beside them.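 A neuron, microglia and astrocyte co-culture models inflammatory neurodegeneration: bacterial LPS drives microglia-dependent neuron loss. Each compound was tested against DMSO vehicle wells on the same plates; BAY61-3606, a SYK inhibitor, was the reference neuroprotective control.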

System: rat primary cerebellar neuron-glia coculture
Assay: necrotic cell count (DRAQ7+) per image field (cells per field); higher = more necrosis
Conditions: LPS 0 ng/mL; 1 µM; treatment time 3 days
Experimental: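 Primary rat (P3-7) cerebellar neuron-glia cocultures in 384-well plates were treated at DIV7 with 1 uM compound, then with or without 100 ng/mL LPS 30 min later, for 3 days. At DIV10 live cells were stained with Hoechst 33342, NeuO (live neurons), IB4-AF594 (microglia) and DRAQ7 (necrotic cells) and imaged at 10x (4 fields per well, IN Cell Analyzer 6000). Cells were classified with Cellpose/CellProfiler plus a Random Trees classifier. Values are per-well mean counts per image field (raw, not min-max normalised) and the median microglial FormFactor per image. Three technical replicates per repeat across 4 biological repeats; DMSO and BAY61-3606 serve as controls.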

Structure (SMILES)	necrotic cell count
CC(C)(C)c1ccc(S(=O)(=O)Nc2ccc(Cl)cc2C(=O)c2cc[n+]([O-])cc2)cc1	85.2 ± 29
Cc1ccc(S(N)(=O)=O)cc1	96.6 ± 46
CCN(CC)c1ccc(NC(=O)c2oc3ccccc3c2C)cc1	70.6 ± 30
CN1[C@@H](CC(=O)c2ccccc2)CCC[C@H]1C[C@H](O)c1ccccc1	65 ± 18
CC(=O)Nc1cccc(-n2c(=O)n(C3CC3)c(=O)c3c(Nc4ccc(I)cc4F)n(C)c(=O)c(C)c32)c1	140 ± 64
CC(C)(C)NC(=O)[C@H]1CC[C@H]2[C@@H]3CC[C@H]4NC(=O)C=C[C@]4(C)[C@H]3CC[C@]12C	82.8 ± 31
O=C(CSc1nc2ccc(N3C(=O)c4ccccc4C3=O)cc2s1)Nc1cccc(Cl)c1	96.7 ± 42
COc1ccc(NC(=O)c2ccc(-c3ccc(-c4nnc(C)o4)cc3C)cc2)cc1N1CCN(C)CC1	56.5 ± 24
Cc1c(C(=O)NN2CCCCC2)nn(-c2ccc(Cl)cc2Cl)c1-c1ccc(I)cc1	85.8 ± 36
C[C@H](NC(=O)Cc1ccc(-c2ccc3cccnc3n2)cc1)c1ccc(-c2ccc(F)c(C(F)(F)F)c2)cc1	85.1 ± 42
O=C(COc1ccc2ccccc2c1)N1CCN(C(=O)Cc2ccccc2)CC1	92.5 ± 46
CCn1c(-c2nonc2N)nc2ccccc21	52.4 ± 22
CCn1c2ccccc2c2cc(NC(=O)N3CCOCC3)ccc21	64.3 ± 53
CC(C)C(NC(=O)/C(=C\c1ccccc1F)NC(=O)c1ccccc1)C(=O)O (stereo not given)	89.4 ± 30
O=C(c1cc(Cc2n[nH]c(=O)c3ccccc23)ccc1F)N1CCN(C(=O)C2CC2)CC1	75.3 ± 36
Cc1[nH]n(-c2ccccc2)c(=O)c1C1(C(F)(F)F)C(=O)N(c2cccc(Cl)c2)C2=C1C(=O)CC(C)(C)C2 (stereo not given)	97.7 ± 39
CC(C)(C#N)c1cc(Cn2cncn2)cc(C(C)(C)C#N)c1	248 ± 60
CCN1CCN(c2ccc(Nc3cc(N(C)C(=O)Nc4c(Cl)c(OC)cc(OC)c4Cl)ncn3)cc2)CC1	83 ± 30
CC1(C)CC[C@]2(C(=O)O)CC[C@]3(C)[C@H](C(=O)C=C4[C@@]5(C)C=C(C#N)C(=O)C(C)(C)[C@@H]5CC[C@]43C)[C@@H]2C1	87.7 ± 34
Cc1c(F)cc(C(=O)NC2CC2)cc1-c1ccc(C(=O)NCC(C)(C)C)cn1	84.6 ± 25

Same assay, conditions: LPS 100 ng/mL; 1 µM; treatment time 3 days

Structure (SMILES)	necrotic cell count
CC(C)(C)c1ccc(S(=O)(=O)Nc2ccc(Cl)cc2C(=O)c2cc[n+]([O-])cc2)cc1	876 ± 180
Cc1ccc(S(N)(=O)=O)cc1	924 ± 350
CCN(CC)c1ccc(NC(=O)c2oc3ccccc3c2C)cc1	976 ± 440
CN1[C@@H](CC(=O)c2ccccc2)CCC[C@H]1C[C@H](O)c1ccccc1	855 ± 390
CC(=O)Nc1cccc(-n2c(=O)n(C3CC3)c(=O)c3c(Nc4ccc(I)cc4F)n(C)c(=O)c(C)c32)c1	438 ± 320
CC(C)(C)NC(=O)[C@H]1CC[C@H]2[C@@H]3CC[C@H]4NC(=O)C=C[C@]4(C)[C@H]3CC[C@]12C	1040 ± 450
O=C(CSc1nc2ccc(N3C(=O)c4ccccc4C3=O)cc2s1)Nc1cccc(Cl)c1	1050 ± 260
COc1ccc(NC(=O)c2ccc(-c3ccc(-c4nnc(C)o4)cc3C)cc2)cc1N1CCN(C)CC1	820 ± 530
Cc1c(C(=O)NN2CCCCC2)nn(-c2ccc(Cl)cc2Cl)c1-c1ccc(I)cc1	1000 ± 460
C[C@H](NC(=O)Cc1ccc(-c2ccc3cccnc3n2)cc1)c1ccc(-c2ccc(F)c(C(F)(F)F)c2)cc1	939 ± 270
O=C(COc1ccc2ccccc2c1)N1CCN(C(=O)Cc2ccccc2)CC1	827 ± 400
CCn1c(-c2nonc2N)nc2ccccc21	776 ± 250
CCn1c2ccccc2c2cc(NC(=O)N3CCOCC3)ccc21	763 ± 440
CC(C)C(NC(=O)/C(=C\c1ccccc1F)NC(=O)c1ccccc1)C(=O)O (stereo not given)	935 ± 370
O=C(c1cc(Cc2n[nH]c(=O)c3ccccc23)ccc1F)N1CCN(C(=O)C2CC2)CC1	1020 ± 320
Cc1[nH]n(-c2ccccc2)c(=O)c1C1(C(F)(F)F)C(=O)N(c2cccc(Cl)c2)C2=C1C(=O)CC(C)(C)C2 (stereo not given)	926 ± 210
CC(C)(C#N)c1cc(Cn2cncn2)cc(C(C)(C)C#N)c1	175 ± 58
CCN1CCN(c2ccc(Nc3cc(N(C)C(=O)Nc4c(Cl)c(OC)cc(OC)c4Cl)ncn3)cc2)CC1	793 ± 270
CC1(C)CC[C@]2(C(=O)O)CC[C@]3(C)[C@H](C(=O)C=C4[C@@]5(C)C=C(C#N)C(=O)C(C)(C)[C@@H]5CC[C@]43C)[C@@H]2C1	452 ± 200
Cc1c(F)cc(C(=O)NC2CC2)cc1-c1ccc(C(=O)NCC(C)(C)C)cn1	259 ± 160
